The source of these data is publication PMC10216487.

By UniProt entry, the sequences of proteins in these tests, tags left out. Where a name states a change or a piece, a line headed by the entry shows the natural chain unless it says otherwise.
UniProt Q96RK0: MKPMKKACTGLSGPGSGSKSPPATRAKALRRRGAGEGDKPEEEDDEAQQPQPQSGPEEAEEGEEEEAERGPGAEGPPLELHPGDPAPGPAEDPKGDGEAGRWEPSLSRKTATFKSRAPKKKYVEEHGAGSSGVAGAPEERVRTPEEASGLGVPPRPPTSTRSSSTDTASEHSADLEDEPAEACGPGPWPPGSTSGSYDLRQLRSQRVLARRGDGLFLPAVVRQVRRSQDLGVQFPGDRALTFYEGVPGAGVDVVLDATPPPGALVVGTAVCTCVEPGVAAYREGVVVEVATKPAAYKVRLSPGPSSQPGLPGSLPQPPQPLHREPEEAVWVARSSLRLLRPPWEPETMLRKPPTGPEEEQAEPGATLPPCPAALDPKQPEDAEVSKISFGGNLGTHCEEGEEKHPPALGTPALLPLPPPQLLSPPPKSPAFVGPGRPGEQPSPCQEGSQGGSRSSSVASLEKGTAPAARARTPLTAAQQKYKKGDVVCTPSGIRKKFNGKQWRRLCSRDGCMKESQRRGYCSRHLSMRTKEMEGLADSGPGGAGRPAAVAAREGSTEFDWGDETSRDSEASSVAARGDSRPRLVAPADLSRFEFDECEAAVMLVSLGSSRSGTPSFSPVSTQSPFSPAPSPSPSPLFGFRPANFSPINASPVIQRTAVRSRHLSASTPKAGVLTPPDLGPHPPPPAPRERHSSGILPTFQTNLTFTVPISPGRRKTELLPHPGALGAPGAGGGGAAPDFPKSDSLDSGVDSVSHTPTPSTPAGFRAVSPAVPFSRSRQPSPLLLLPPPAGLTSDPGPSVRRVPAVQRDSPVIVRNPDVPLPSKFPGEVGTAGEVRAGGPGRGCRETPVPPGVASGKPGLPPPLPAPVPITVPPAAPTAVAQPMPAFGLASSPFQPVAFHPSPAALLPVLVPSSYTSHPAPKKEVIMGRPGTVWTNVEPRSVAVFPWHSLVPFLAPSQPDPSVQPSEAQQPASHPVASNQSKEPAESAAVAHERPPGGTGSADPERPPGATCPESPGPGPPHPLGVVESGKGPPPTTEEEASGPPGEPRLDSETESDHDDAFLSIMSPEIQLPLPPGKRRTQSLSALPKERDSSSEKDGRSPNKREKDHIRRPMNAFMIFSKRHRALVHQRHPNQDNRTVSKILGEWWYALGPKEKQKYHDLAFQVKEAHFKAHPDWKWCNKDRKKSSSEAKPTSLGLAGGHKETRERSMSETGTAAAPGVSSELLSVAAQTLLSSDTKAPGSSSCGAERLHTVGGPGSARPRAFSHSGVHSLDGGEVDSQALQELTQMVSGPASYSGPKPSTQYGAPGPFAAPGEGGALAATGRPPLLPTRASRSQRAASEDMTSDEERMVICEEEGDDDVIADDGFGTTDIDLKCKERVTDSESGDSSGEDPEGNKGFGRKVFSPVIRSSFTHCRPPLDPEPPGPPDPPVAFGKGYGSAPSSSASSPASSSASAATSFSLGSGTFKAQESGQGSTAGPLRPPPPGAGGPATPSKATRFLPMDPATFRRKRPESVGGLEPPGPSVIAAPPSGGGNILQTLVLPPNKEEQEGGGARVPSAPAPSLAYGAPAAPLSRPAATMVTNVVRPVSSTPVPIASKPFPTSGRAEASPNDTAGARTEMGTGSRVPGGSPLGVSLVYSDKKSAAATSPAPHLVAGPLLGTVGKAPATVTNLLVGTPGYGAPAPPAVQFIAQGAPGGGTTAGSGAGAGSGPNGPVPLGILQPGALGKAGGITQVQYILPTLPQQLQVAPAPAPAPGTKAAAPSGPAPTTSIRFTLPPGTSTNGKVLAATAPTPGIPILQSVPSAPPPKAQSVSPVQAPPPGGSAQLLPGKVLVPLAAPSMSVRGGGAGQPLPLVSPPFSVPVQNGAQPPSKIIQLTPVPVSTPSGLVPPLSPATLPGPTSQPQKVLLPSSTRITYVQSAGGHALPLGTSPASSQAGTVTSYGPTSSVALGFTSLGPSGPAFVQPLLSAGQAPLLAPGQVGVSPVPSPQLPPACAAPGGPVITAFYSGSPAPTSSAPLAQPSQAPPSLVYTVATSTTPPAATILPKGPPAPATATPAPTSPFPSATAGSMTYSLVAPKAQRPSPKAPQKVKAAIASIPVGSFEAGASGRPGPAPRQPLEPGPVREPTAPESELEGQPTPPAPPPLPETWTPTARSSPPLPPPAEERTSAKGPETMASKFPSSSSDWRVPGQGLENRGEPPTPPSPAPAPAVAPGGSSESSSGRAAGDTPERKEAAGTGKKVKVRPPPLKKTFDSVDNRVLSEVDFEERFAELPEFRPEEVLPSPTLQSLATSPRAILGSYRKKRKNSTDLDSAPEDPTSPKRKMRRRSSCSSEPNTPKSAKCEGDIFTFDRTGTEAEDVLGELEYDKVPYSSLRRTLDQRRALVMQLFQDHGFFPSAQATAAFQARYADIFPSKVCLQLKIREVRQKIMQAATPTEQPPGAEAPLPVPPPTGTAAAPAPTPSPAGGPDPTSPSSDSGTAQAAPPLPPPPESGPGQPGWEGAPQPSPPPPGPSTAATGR
UniProt P51531: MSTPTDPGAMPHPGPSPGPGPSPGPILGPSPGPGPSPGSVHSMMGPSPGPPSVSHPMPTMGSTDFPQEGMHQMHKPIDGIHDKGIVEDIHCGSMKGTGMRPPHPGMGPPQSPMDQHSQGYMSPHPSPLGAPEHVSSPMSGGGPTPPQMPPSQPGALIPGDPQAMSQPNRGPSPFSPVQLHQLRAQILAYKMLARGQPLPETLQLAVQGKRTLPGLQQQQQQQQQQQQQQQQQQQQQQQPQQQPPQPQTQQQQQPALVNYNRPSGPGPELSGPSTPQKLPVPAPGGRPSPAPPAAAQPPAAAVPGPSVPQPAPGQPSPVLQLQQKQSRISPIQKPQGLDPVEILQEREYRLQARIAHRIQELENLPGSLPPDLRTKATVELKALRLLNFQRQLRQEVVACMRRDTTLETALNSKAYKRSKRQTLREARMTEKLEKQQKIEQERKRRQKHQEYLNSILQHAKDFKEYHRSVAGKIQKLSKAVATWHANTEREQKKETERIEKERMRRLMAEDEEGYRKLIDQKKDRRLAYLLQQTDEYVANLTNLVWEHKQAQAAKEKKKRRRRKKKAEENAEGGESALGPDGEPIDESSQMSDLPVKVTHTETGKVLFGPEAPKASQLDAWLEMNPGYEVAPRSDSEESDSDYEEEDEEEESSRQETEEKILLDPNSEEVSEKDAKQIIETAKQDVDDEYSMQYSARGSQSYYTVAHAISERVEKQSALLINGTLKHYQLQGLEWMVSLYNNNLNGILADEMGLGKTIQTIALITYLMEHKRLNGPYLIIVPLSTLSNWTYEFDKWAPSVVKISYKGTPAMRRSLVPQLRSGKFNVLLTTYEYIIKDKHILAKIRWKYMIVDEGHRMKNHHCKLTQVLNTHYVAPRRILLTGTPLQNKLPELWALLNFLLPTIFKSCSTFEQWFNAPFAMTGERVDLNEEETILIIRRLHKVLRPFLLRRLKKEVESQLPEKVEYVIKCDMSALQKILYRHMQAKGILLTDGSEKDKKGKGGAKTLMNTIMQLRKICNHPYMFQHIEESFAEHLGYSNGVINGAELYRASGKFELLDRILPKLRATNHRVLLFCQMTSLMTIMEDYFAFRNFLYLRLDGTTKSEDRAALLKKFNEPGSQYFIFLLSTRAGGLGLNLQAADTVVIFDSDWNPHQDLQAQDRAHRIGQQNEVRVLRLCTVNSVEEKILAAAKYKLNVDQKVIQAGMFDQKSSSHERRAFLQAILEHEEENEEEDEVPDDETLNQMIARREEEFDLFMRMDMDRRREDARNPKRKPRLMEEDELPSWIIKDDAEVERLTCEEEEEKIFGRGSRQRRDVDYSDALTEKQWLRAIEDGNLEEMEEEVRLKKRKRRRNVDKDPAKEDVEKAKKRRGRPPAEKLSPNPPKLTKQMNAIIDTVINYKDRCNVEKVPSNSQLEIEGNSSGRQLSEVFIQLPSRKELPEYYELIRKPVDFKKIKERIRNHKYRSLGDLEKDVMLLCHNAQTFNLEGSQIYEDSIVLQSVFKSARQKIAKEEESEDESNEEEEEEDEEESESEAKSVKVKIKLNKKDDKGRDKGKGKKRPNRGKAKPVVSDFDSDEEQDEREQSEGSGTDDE
UniProt Q92922: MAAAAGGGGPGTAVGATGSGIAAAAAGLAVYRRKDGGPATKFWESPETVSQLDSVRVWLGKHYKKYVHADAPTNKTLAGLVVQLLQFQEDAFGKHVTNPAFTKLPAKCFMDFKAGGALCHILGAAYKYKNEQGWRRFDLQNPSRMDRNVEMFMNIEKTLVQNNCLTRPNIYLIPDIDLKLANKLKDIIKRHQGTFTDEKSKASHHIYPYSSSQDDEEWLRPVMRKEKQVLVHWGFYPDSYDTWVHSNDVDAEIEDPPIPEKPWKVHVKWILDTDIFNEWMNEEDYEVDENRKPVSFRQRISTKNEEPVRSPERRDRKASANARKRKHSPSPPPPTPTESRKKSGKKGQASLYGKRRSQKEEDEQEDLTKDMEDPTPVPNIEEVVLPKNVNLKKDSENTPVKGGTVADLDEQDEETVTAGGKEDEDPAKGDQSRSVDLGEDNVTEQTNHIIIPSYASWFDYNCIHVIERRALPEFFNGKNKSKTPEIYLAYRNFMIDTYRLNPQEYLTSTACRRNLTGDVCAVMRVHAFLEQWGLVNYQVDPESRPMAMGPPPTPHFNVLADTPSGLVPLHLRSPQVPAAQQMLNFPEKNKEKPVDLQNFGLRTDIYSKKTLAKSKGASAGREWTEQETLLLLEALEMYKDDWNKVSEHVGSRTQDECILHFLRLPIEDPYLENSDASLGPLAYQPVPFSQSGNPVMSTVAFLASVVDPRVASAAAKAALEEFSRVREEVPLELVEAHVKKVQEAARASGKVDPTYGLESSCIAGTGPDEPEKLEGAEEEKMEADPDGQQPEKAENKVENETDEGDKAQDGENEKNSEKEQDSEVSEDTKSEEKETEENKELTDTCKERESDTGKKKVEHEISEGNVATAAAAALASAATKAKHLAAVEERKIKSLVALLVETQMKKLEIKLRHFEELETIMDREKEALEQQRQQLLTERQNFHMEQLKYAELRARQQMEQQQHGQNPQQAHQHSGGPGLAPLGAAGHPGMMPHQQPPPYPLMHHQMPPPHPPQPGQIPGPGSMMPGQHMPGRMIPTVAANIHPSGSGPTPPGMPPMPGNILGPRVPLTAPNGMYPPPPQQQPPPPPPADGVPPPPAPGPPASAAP

The assay has as its target N-terminal FLAG-CIC-short form (FLAG-CIC-S) (UniProt Q96RK0). Description: proximity ligation; antibodies against FLAG and ARID1A, SMARCA2, SMARCC1 or ARID2 in HEK-CIC^KO-D10 cells expressing F-CIC-S, empty vector cells as control; PLA spots per nuclear region, interphase (<40 nm).

These are yes or no findings as the source states them, for the method shown. In cells and extracts the contact can be indirect. Binding calls can cover weak binding; strength is not graded here.

As for SMARCA2 (from UniProt P51531 1-1590), the binding entry is on record as “binds”.

Regarding SMARCC1 (from UniProt Q92922 1-1105), the binding entry is on record as “binds”.
